Measured values taken from PubChem BioAssay AID720551 (National Center for Advancing Translational Sciences (NCATS), 2013).
Screen size: about 340,000 compounds; about 1,300 (0.38%) were called active. Inconclusive results, whose numbers are uncertain, are shown with a selection of clear calls.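 Rule for the calls: active = maximum activity change below -70%; inconclusive = maximum activity change between -70% and -50%; inactive = maximum activity change above -50%.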

Amino acid sequences for entries named in this document (tags omitted).
UniProt Q12809, whole entry, looked up: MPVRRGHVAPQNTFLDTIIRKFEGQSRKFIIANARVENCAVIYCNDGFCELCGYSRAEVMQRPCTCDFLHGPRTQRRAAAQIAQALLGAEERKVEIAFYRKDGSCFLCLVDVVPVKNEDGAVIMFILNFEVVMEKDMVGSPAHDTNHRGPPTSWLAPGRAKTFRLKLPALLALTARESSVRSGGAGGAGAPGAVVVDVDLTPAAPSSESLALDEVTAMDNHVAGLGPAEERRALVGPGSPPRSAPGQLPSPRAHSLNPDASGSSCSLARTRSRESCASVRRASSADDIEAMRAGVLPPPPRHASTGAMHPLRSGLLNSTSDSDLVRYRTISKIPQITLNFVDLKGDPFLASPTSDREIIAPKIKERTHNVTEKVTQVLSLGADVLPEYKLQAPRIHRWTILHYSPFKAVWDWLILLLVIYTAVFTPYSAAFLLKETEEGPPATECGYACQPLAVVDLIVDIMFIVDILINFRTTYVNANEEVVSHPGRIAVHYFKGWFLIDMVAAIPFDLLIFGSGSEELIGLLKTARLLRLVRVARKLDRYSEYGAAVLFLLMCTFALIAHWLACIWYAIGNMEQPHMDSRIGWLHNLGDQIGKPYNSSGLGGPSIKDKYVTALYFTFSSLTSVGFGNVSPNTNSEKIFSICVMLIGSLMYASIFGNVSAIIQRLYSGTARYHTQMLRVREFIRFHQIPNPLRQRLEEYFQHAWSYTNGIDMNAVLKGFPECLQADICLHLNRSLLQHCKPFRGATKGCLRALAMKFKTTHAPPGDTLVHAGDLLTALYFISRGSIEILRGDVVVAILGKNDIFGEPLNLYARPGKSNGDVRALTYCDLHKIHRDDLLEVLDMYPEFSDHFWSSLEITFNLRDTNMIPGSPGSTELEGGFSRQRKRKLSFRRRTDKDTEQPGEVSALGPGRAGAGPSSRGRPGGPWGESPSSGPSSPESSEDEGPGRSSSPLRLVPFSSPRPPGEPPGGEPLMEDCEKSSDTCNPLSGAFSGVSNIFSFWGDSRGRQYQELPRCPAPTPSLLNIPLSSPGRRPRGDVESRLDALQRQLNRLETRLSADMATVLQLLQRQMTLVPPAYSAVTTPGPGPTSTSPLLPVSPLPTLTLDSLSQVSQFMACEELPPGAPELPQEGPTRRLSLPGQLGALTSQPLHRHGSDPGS

What follows are compounds tested against Voltage-gated inwardly rectifying potassium channel KCNH2 (Homo sapiens) (UniProt Q12809) (assay: qHTS for Inhibitors of KCHN2 3.1: Wildtype qHTS). Conditions: U2OS, BacMam KCNH2, thallium flux FluxOr; at 1.84 µM, stronger effect = lower value.
Summary of the method: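 U2OS cells were transduced with wild-type KCNH2 virus (2.03 x 10^8 / mL) for 4 h at room temperature, then cultured overnight at 37 C. Thallium flux was read with FluxOr dye. Rate constants were normalized to DMSO controls.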
% is set by controls: 0 for no effect and ±100 for the full control effect.

Compound	activity change
O=C(CCN1C(=O)[C@@H]2Cc3ccccc3CN2C1=O)Nc1cccc(F)c1	inconclusive: -61.1%
O=C(c1sc2cc([N+](=O)[O-])ccc2c1Cl)N1CCOCC1	active: -96.6%
CCOc1ccc(-c2ccc(SCC(=O)Nc3nnc(CC)s3)nn2)cc1	inactive: 4.72%
C/C=C/c1ccc(OCC(O)CN(C)Cc2ccc(SC)cc2)c(OC)c1 (configuration not stated)	inconclusive: -58.7%
CSc1nnc(-c2ccc(S(=O)(=O)N3CCCCC3)cc2)o1	inconclusive: -66.8%
N=c1c(C(=O)NC2CCCC2)cc2c(=O)n3ccccc3nc2n1C1CCCC1	inconclusive: -52.3%
CNC(=S)Nc1ccc(N2CCCC2)c(S(=O)(=O)Nc2ccc(OC)cc2)c1	inconclusive: -65.4%
COCCn1c(SCC(=O)Nc2ccc(Cl)c(S(=O)(=O)N(C)C)c2)nc2ccccc21	active: -118%
O=C(CN1CCN(S(=O)(=O)c2ccccc2)CC1)NCc1ccccc1	inconclusive: -51.6%
CC(C)(C)c1ccc(C(=O)Nc2cccnc2)cc1	inactive: -5.45%
O=C1N(c2ccc(Cl)c(Cl)c2)CN(Cc2ccccc2)CN1n1cnnc1	inconclusive: -50.4%
CC1(C)Cc2cccc(OCC(=O)NCCc3ccc(S(N)(=O)=O)cc3)c2O1	inactive: 4.22%
O=C(CSc1ccccc1C(=O)N1CCN(c2ccc([N+](=O)[O-])cc2)CC1)N1CCCC1	inconclusive: -57.6%
Cc1csc(NC(=O)CSc2nc(C(C)C)nc3ccccc23)n1	inactive: -3.11%
COC(=O)c1ccc(NC(=O)c2ccccc2N(C)S(=O)(=O)c2ccccc2)cc1	inactive: -4.35%
CCCCc1ccc(NC(=O)C(=O)NCCN2CCN(C(=O)c3ccc([N+](=O)[O-])cc3)CC2)cc1	inconclusive: -59%
Cc1cccc(N2CCN(C(=O)CCC(=O)N3Cc4ccccc4Oc4ncccc43)CC2)c1C	inconclusive: -54%
CSc1ccc(CN2CCC(n3nccc3NC(=O)c3ccccc3C)CC2)cc1	active: -126%
COc1ccc(-c2cccc3c2NC(=O)C3=O)cc1OC	inactive: -3.53%
CCC1(c2ccccc2)NC(=O)N(CC(=O)Nc2cc(C(F)(F)F)ccc2N2CCCC2)C1=O (configuration not stated)	inconclusive: -69%
COc1cc(C(=O)NNC(=O)CCOc2ccccc2)cc(OC)c1OC	inactive: 7.39%
Cc1ccc(CN2CCC(c3nc4ccc(Cl)cc4[nH]3)CC2)cc1	active: -132%

Compound	activity change
CCCNC(=O)N1CCN(C(c2ccccc2)c2ccccc2)CC1	inconclusive: -51.7%
CCCCC(=O)N1C(C)CCC1C (configuration not stated)	inconclusive: -61.4%
O=C(c1cccc(C(F)(F)F)c1)C1CCCN(Cc2cccn2-c2ncccn2)C1 (configuration not stated)	active: -72.4%
Cc1ccccc1/C=C/c1cc[n+](C)cc1	inactive: -2.94%
O=C(Nc1ccc2c(c1)OCO2)c1cc2ncc(Br)cn2n1	inconclusive: -53.7%
O=c1c2c3c(sc2n(CCN2CCCCC2)c(=O)n1Cc1ccco1)CCCCC3	inconclusive: -50.9%
O=C(O)c1c[nH]c2c([N+](=O)[O-])cccc2c1=O	inactive: -12%
C/C(=N\NC(=O)c1cc(O)cc(O)c1)c1ccc(NC(=O)Cc2ccccc2)cc1	inactive: -2.55%
COc1cc(OC)c(OC)cc1CCC(C)NCCC(c1ccccc1)c1ccccc1 (configuration not stated)	inconclusive: -55.3%
CCOC(=O)C1(CCc2ccccc2)CCN(C2Cc3ccccc3C2)CC1	inconclusive: -56.4%
COc1cccc(C2c3c(C)nn(-c4ccc([N+](=O)[O-])cc4)c3N=C3C(=O)Nc4ccccc4N32)c1 (configuration not stated)	inconclusive: -52.6%
CCOC(=O)c1ccccc1NC(=O)CSc1nnc(Cc2cccn2C)n1-c1ccc(F)cc1	active: -87.5%
CC(C)(C)C(=O)Nc1ccc(-c2cn3ccsc3n2)cc1	inactive: -0.402%
Nc1nn2cc(-c3ccccc3)nc2c2ccccc12	inactive: 8.88%
COc1ccc(NC(=O)N2CCCc3ccccc32)cc1OC	inconclusive: -52.4%
CC1(C)Cc2c(cnn2-c2ccc(F)cc2)C(NC(=O)c2ccoc2)C1 (configuration not stated)	inconclusive: -66%
COc1ccc(/C=C(\NC(=O)c2ccc(C)cc2)C(=O)NCCCn2ccnc2)cc1	inconclusive: -53.9%
COc1cc(O)c(C(CCN2CCCC(C)C2)c2ccc3c(c2)OCO3)c(OC)c1 (configuration not stated)	inconclusive: -64%
CCOc1ccc(/C=C(\C#N)C(=O)NCC2CCCO2)cc1OCC (configuration not stated)	inactive: -2.52%
CCOc1ccc(Cn2c3ccc(OC)cc3c3nc4ccccc4nc32)cc1OC	inactive: 11.1%
CCCCNc1c(-c2ccc(Sc3ccc(OC)cc3)cc2)nc2cc(C)ccn12	inconclusive: -69.6%

Reformatted bar-delimited: part of the list above.
Compound | activity change
CSc1nnc(-c2ccc(S(=O)(=O)N3CCCCC3)cc2)o1 | inconclusive: -66.8%
COC(=O)c1ccc(NC(=O)c2ccccc2N(C)S(=O)(=O)c2ccccc2)cc1 | inactive: -4.35%
CCOC(=O)C1(CCc2ccccc2)CCN(C2Cc3ccccc3C2)CC1 | inconclusive: -56.4%
COc1ccc(/C=C(\NC(=O)c2ccc(C)cc2)C(=O)NCCCn2ccnc2)cc1 | inconclusive: -53.9%

(list continues)

Compound	activity change
CCOc1cc(S(=O)(=O)N2CCN(c3ccc(F)cc3)CC2)c(OCC)cc1-n1cnnn1	active: -76.2%
C=CCOc1ccccc1CN1CCC(CO)(CCOc2ccccc2)CC1	inconclusive: -65.3%
COc1ccc(-c2noc(CCC(=O)NCCCN3CCC(Cc4ccccc4)CC3)n2)cc1	inconclusive: -58.5%
O=C(c1cccs1)N1C[C@@H](n2cc(-c3ccc(F)cc3)nn2)[C@H](O)C[C@@H]1c1ccccc1	inconclusive: -54%
CCOC(=O)c1nc(Nc2ccc(Nc3ccccc3)cc2)c2ccccc2n1	inconclusive: -64.5%
COc1ccc(C2(c3ccc(OC)cc3)NC(=O)N(CC(=O)Nc3ccc(OC(F)F)cc3)C2=O)cc1	active: -82.6%
Cc1nccn1-c1ncnc2sc3c(c12)CCCC3	inactive: -0.725%
CCOc1ccccc1NC(=O)C1CCCC1	active: -83.7%
CCCN(CCC)C(=S)NC(=O)c1ccc(-c2ccccc2)cc1	inconclusive: -52.5%
O=C(c1ccc(F)cc1)C1CCN(Cc2cn[nH]c2-c2ccccc2)CC1	inconclusive: -65.3%
O=C(CN1CCN(CC(=O)Nc2ccccc2Cl)CC1)Nc1ccc(F)c(F)c1	inconclusive: -61.8%
COCc1cc(C)nc(SCc2ccc(F)cc2)c1C#N	inconclusive: -51%
O=C(N/N=C/c1ccccc1)c1[nH]ncc1Br	inactive: 2.77%
O=C(C1CCCCC1)N1C[C@@H](n2cc(-c3ccc(F)cc3)nn2)[C@H](O)C[C@@H]1c1ccccc1	inactive: -3%
OCCC1CN(Cc2cccc(-n3cccn3)c2)CCN1Cc1ccccc1 (configuration not stated)	inactive: 11.9%
O=C(Nc1ccnn1C1CCN(CCCC2CCCC2)CC1)c1ccccc1	inconclusive: -62.5%
CC(C)COC(=O)C(C#N)c1nc2ccccc2nc1N1CCN(Cc2ccc3c(c2)OCO3)CC1 (configuration not stated)	inconclusive: -66.4%
COc1ccc(NC(C)=O)cc1S(=O)(=O)N1CCN(C/C=C/c2ccccc2)CC1	inactive: 12.4%
Cc1nc(-c2cccs2)sc1C(=O)O	active: -95.8%
C/C(=N\Nc1ncnc2sc(C)c(C)c12)c1ccccn1	active: -73%
O=C(Nc1ccc(CN2CCCCC2)cc1)Nc1ccc(Br)cc1Cl	inconclusive: -65.8%
Cc1ccc(S(=O)(=O)N2CCOCC2)cc1C(=O)NCCCn1ccnc1	active: -89.7%

Compound	activity change
COc1ccc(CNCCC(c2ccccc2)c2ccc(OC(C)C)cc2)cc1OC (configuration not stated)	inconclusive: -58.1%
O=C(N/N=C/c1cccnc1)c1cc(-c2ccccc2OCc2ccccc2)n[nH]1	inactive: -0.186%
COc1ccc(CCNC(=O)COC(=O)C23CC4CC(CC(Br)(C4)C2)C3)cc1	active: -88.2%
Cc1nc(OCC(=O)c2ccc(Cl)cc2)c(C#N)c2c1COC(C)(C)C2	inactive: 0.217%
COC(=O)c1[nH]c2ccccc2c1NC(=O)CN1CCN(C/C=C/c2ccccc2)CC1	active: -93.9%
CCCCN(CC)CCNC(=O)c1cn(-c2ccc(Cl)cc2)c(=O)c2ccccc12	inconclusive: -52.9%
CC1(C)Cc2c(cnn2-c2ccccc2)C(NC(=O)c2ccoc2)C1 (configuration not stated)	inconclusive: -60.2%
Cc1cccc(C(=O)NCC(=O)OCCOc2ccccc2Cl)c1	inconclusive: -53.6%
OCCC1CN(Cc2nc(-c3ccc(F)cc3)cs2)CCN1CCc1ccccc1 (configuration not stated)	inconclusive: -55.2%
OC(COc1ccc(F)cc1Cl)CN1CCC(Cc2ccccc2)CC1 (configuration not stated)	inconclusive: -54.3%
COC(=O)COc1ccc(-c2nccc(-c3ccc(Br)cc3)n2)cc1	inconclusive: -50.9%
COc1ccc(CC2(CO)CCN(Cc3ccc(OC(F)(F)F)cc3)CC2)cc1	inconclusive: -52.3%
COC(=O)Cn1cc(C(=O)C2CC2)c2ccccc21	inconclusive: -65.4%
COc1ccc2ccc(OC)c(/C=N/n3cnnc3)c2c1	inconclusive: -57.2%
Cc1ccc(S(=O)(=O)N2CCN(C(=O)COC(=O)c3ccc(Cl)nc3)CC2)c(C)c1	active: -162%
COc1ccc(C2c3[nH]c4ccccc4c3CCN2Cc2cccn2-c2ncccn2)cc1C (configuration not stated)	inconclusive: -61.8%
CC(C)CCC(CCNCc1ccccn1)c1ccc2c(c1)OCO2 (configuration not stated)	inconclusive: -68.7%
Cc1nc(N)nc(N/N=C/c2ccccc2)n1	active: -75.6%
COc1ccc(OC)c(-c2nc(C(=O)NC3CCN(Cc4ccccc4)CC3)cc3c2[nH]c2ccccc23)c1	inconclusive: -58.1%
O=C(CN1CCC(Cc2ccccc2)CC1)NC(=O)NCc1ccco1	inconclusive: -63.3%
Cc1c(S(=O)(=O)Nc2cccc(Cl)c2)c(=O)n(C)c(=O)n1C	inactive: -10.9%
